# Source: patent US8501400B2, “Methods and compositions for determining the pathogenic status of infectious agents” (priority 2007, dated 2013)
# At least one structure is not confirmed: it was looked up by name or label, or the drawing left a doubt.
# Assays:
# [1] = system: RIF-resistant Mtb strain; type: cell-based; details: 16 hr drug treatment, MOI=1, 4 hr post-infection, RT-PCR
# [2] = system: EMB resistant Mtb strain; type: cell-based; details: 16 hr drug treatment, MOI=1, 4 hr post-infection, RT-PCR
smiles,measurement,setting,value
"CO[C@H]1/C=C/O[C@@]2(C)Oc3c(C)c(O)c4c(O)c(c(/C=N/N5CCN(C)CC5)c(O)c4c3C2=O)NC(=O)/C(C)=C\C=C\[C@H](C)[C@H](O)[C@@H](C)[C@@H](O)[C@@H](C)[C@H](OC(C)=O)[C@@H]1C [RIF, rifampicin]",SML generation after drug treatment,[1],no observable reduction in SML generation
same,SML generation after drug treatment,[2],no detectable SML
